Experimental data from patent publication US12729225B2, “Non-canonical SWI/SNF complex and uses thereof” (Dana-Farber Cancer Institute, Inc., priority 2018, dated 2026).

B1: ALDH1A1 (protein, UniProt P00352 2-501, looked up)
Aldehyde dehydrogenase 1A1: SSSGTPDLPVLLTDLKIQYTKIFINNEWHDSVSGKKFPVFNPATEEELCQVEEGDKEDVDKAVKAARQAFQIGSPWRTMDASERGRLLYKLADLIERDRLLLATMESMNGGKLYSNAYLNDLAGCIKTLRYCAGWADKIQGRTIPIDGNFFTYTRHEPIGVCGQIIPWNFPLVMLIWKIGPALSCGNTVVVKPAEQTPLTALHVASLIKEAGFPPGVVNIVPGYGPTAGAAISSHMDIDKVAFTGSTEVGKLIKEAAGKSNLKRVTLELGGKSPCIVLADADLDNAVEFAHHGVFYHQGQCCIAASRIFVEESIYDEFVRRSVERAKKYILGNPLTPGVTQGPQIDKEQYDKILDLIESGKKEGAKLECGGGPWGNKGYFVQPTVFSNVTDEMRIAKEEIFGPVQQIMKFKSLDDVIKRANNTFYGLSAGVFTKDIDKAITISSALQAGTVWVNCYGVVSAQCPFGGFKMSGNGRELGEYGFHEYTEVKTVTVKISQKNS
B2: RBM39 (protein, UniProt Q14498 2-530, looked up)
RNA-binding protein 39: ADDIDIEAMLEAPYKKDENKLSSANGHEERSKKRKKSKSRSRSHERKRSKSKERKRSRDRERKKSKSRERKRSRSKERRRSRSRSRDRRFRGRYRSPYSGPKFNSAIRGKIGLPHSIKLSRRRSRSKSPFRKDKSPVREPIDNLTPEERDARTVFCMQLAARIRPRDLEEFFSTVGKVRDVRMISDRNSRRSKGIAYVEFVDVSSVPLAIGLTGQRVLGVPIIVQASQAEKNRAAAMANNLQKGSAGPMRLYVGSLHFNITEDMLRGIFEPFGRIESIQLMMDSETGRSKGYGFITFSDSECAKKALEQLNGFELAGRPMKVGHVTERTDASSASSFLDSDELERTGIDLGTTGRLQLMARLAEGTGLQIPPAAQQALQMSGSLAFGAVAEFSFVIDLQTRLSQQTEASALAAAASVQPLATQCFQLSNMFNPQTEEEVGWDTEIKDDVIEECNKHGGVIHIYVDKNSAQGNVYVKCPSIAAAIAAVNALHGRWFAGKMITAAYVPLPTYHNLFPDSMTATQLLVPSRR
B3: FAM133A (protein, UniProt Q8N9E0 1-248, looked up)
Protein FAM133A: MGKRDNRVAYMNPIAMARWRGPTQSVGPTIQDYLNRPRPTWEEVKKQLENKKTGSKALAEFEEKMNENWKKELEKSREKLLSGNESSSKKRERKKKRKKKSCRSSSSSSSSDSSSSSSDSEDEEKKQGKRRKKKKNRSYKSSQSSTHESESESKESVKKKKKSKDETEKEKDVRSLSKKRKKSYPDDKPLSSESSSESDYEEDVQAKKKRRCEEREQAKEKVKKKKKKQHKKHSKKKKKKSGSSHKSR
B4: HSP90B2P (protein, UniProt Q58FF3 1-399, looked up)
Putative endoplasmin-like …: MAETIQEVEDEYKAFCKSFSKESDDPVACIHFTAEGEVTFKSILFVPTFVPRGLFDEYGSKKSDYIKLYVRCVFITDDFRDTMPKNLNFVKGVVDSGGLSLNVSCETLQQHKLLKVIRKKLVHKTLDMIKKIADEKYNDTFWKEFGTNIKLGVIEDHSNRTCLAKLLRFQSSHHPADITSLHQDVERMKEKQDKICLMAGGYEVIYLTEPVVEYCIQALPEFDGKRFQNVAKEGVKFDDSEKTKESHEAVEKEFEPLPNWVKDKAIKDKIEKAMVSQCLTESLCALVASQYGWSGNMERIMKAQAYQTGKGISTNYHASRKKTFEINPRHPLIRDMLRRIKEDEDDKTVLDLAVVEEPDEEPEETAEDKEQDKDKEMDVGTDEEKQETAKESTAEKDEL
B5: LIAT1 (protein, UniProt Q6ZQX7 1-453, looked up)
Protein LIAT1: METRGPGLAVRAESRRLVGIGPRAPPGRVGLQPSGRLDRRGGAGTMGYKDNDGEEEEREGGAAGPRGSRLPPITGGASELAKRKVKKKKRKKKTKGSGKGDDKHQSQSLKSQPLSSSFHDILSPCKERGPKPEHRQSKVEKKHLPSDSSTVSLPDFAEIENLANRINESLRWDGILADPEAEKERIRIYKLNRRKRYRCLALKGFHPDPEALKGFHPDPDALKGFHPDPEALKGFHPDPEALKGFHPDPEALKGFHPDPEALKGIHPDPEALKGIHPDPEALKGFHPDPEALKGFHPDPEALKGFHTDPEALKGFHIDPEALKGFHPDPKALKGFHPDPKALKGFHTDPEALKGFHPDPKALKGFHPDPEALKGFHPDPEALKGFHPDPEALKGFHTDPNAEEAPENLPYLSDKDGSSSHRQPTSKAECPNLCFEGNLTPKLLHSDLAPTLLE
B6: ##PDE4B (protein, UniProt Q07343 1-736, looked up)
3',5'-cyclic-AMP …: MKKSRSVMTVMADDNVKDYFECSLSKSYSSSSNTLGIDLWRGRRCCSGNLQLPPLSQRQSERARTPEGDGISRPTTLPLTTLPSIAITTVSQECFDVENGPSPGRSPLDPQASSSAGLVLHATFPGHSQRRESFLYRSDSDYDLSPKAMSRNSSLPSEQHGDDLIVTPFAQVLASLRSVRNNFTILTNLHGTSNKRSPAASQPPVSRVNPQEESYQKLAMETLEELDWCLDQLETIQTYRSVSEMASNKFKRMLNRELTHLSEMSRSGNQVSEYISNTFLDKQNDVEIPSPTQKDREKKKKQQLMTQISGVKKLMHSSSLNNTSISRFGVNTENEDHLAKELEDLNKWGLNIFNVAGYSHNRPLTCIMYAIFQERDLLKTFRISSDTFITYMMTLEDHYHSDVAYHNSLHAADVAQSTHVLLSTPALDAVFTDLEILAAIFAAAIHDVDHPGVSNQFLINTNSELALMYNDESVLENHHLAVGFKLLQEEHCDIFMNLTKKQRQTLRKMVIDMVLATDMSKHMSLLADLKTMVETKKVTSSGVLLLDNYTDRIQVLRNMVHCADLSNPTKSLELYRQWTDRIMEEFFQQGDKERERGMEISPMCDKHTASVEKSQVGFIDYIVHPLWETWADLVQPDAQDILDTLEDNRNWYQSMIPQSPSPPLDEQNRDCQGLMEKFQFELTLDEEDSEGPEKEGEGHSYFSSTKTLCVIDPENRDSLGETDIDIATEDKSPVDT
B7: ##OSGIN2 (protein, UniProt Q9Y236 1-505, looked up)
Oxidative stress-induced …: MPLVEETSLLEDSSVTFPVVIIGNGPSGICLSYMLSGYRPYLSSEAIHPNTILNSKLEEARHLSIVDQDLEYLSEGLEGRSSNPVAVLFDTLLHPDADFGYDYPSVLHWKLEQHHYIPHVVLGKGPPGGAWHNMEGSMLTISFGSWMELPGLKFKDWVSSKRRSLKGDRVMPEEIARYYKHYVKVMGLQKNFRENTYITSVSRLYRDQDDDDIQDRDISTKHLQIEKSNFIKRNWEIRGYQRIADGSHVPFCLFAENVALATGTLDSPAHLEIEGEDFPFVFHSMPEFGAAINKGKLRGKVDPVLIVGSGLTAADAVLCAYNSNIPVIHVFRRRVTDPSLIFKQLPKKLYPEYHKVYHMMCTQSYSVDSNLLSDYTSFPEHRVLSFKSDMKCVLQSVSGLKKIFKLSAAVVLIGSHPNLSFLKDQGCYLGHKSSQPITCKGNPVEIDTYTYECIKEANLFALGPLVGDNFVRFLKGGALGVTRCLATRQKKKHLFVERGGGDGIA
B8: ##FRG2B (protein, UniProt Q96QU4 1-278, looked up)
Protein FRG2-like-1: MGKGNEDPDLHCSSIQCSTDQPPFQQISFTEKGSDEKKPFKEKGKTAFSHSSEKHIQRQGSEPNPNKENSEETKLKAGNSTAGSEPESSSYRENCRKRKMSSKDSCQDTAGNCPEKECSLSLNKKSRSSTPVHNSEIQETCDAHHRGRSRACTGRSKRHRSRALGVQTPSIRKSLVTSVRAMSEAVYQDLAQVWAQQIHSPLTCEQLTLLTRLRGPLCAQVQTLYSMATQAAYVFPAESWLVPATLPGPGESALDREAHPFPGQEITETVSGSDEAKL
B9: NOL7 (protein, UniProt Q9UMY1 1-257, looked up)
U3 small nucleolar …: MVQLRPRASRAPASAEAMVDEGQLASEEEEAEHGLLLGQPSSGAAAEPLEEDEEGDDEFDDEAPEELTFASAQAEAREEERRVRETVRRDKTLLKEKRKRREELFIEQKKRKLLPDTILEKLTTASQTNIKKSPGKVKEVNLQKKNEDCEKGNDSKKVKVQKVQSVSQNKSYLAVRLKDQDLRDSRQQAAQAFIHNSLYGPGTNRTTVNKFLSLANKRLPVKRAAVQFLNNAWGIQKKQNAKRFKRRWMVRKMKTKK
B10: FBXL18 (protein, UniProt Q96ME1 1-718, looked up)
F-box/LRR-repeat protein 18: MASSGEDISNDDDDMHPAAAGMADGVHLLGFSDEILLHILSHVPSTDLILNVRRTCRKLAALCLDKSLIHTVLLQKDYQASEDKVRQLVKEIGREIQQLSMAGCYWLPGSTVEHVARCRSLVKVNLSGCHLTSLRLSKMLSALQHLRSLAIDVSPGFDASQLSSECKATLSRVRELKQTLFTPSYGVVPCCTSLEKLLLYFEILDRTREGAILSGQLMVGQSNVPHYQNLRVFYARLAPGYINQEVVRLYLAVLSDRTPQNLHAFLISVPGSFAESGATKNLLDSMARNVVLDALQLPKSWLNGSSLLQHMKFNNPFYFSFSRCTLSGGHLIQQVINGGKDLRSLASLNLSGCVHCLSPDSLLRKAEDDIDSSILETLVASCCNLRHLNLSAAHHHSSEGLGRHLCQLLARLRHLRSLSLPVCSVADSAPRADRAPAQPAMHAVPRGFGKKVRVGVQSCPSPFSGQACPQPSSVFWSLLKNLPFLEHLELIGSNFSSAMPRNEPAIRNSLPPCSRAQSVGDSEVAAIGQLAFLRHLTLAQLPSVLTGSGLVNIGLQCQQLRSLSLANLGMMGKVVYMPALSDMLKHCKRLRDLRLEQPYFSANAQFFQALSQCPSLQRLCLVSRSGTLQPDAVLAFMARCLQVVMCHLFTGESLATCKSLQQSLLRSFQAERPALNVVIFPLLHEGLTDVIRDVPLVHLDEITLFKSRVAEEPPNLWW

Test system: mSWI/SNF complexes
Test: mSWI/SNF complex purification with HA-tagged baits and mass spectrometry (peptide counts)
Parameters: species or system human
[1] = 293_HA-BRD7 bait purification, mass spectrometry, total peptide count per identified protein
[2] = 293_HA-BRD7 bait purification, mass spectrometry, unique peptide count per identified protein

Row | Molecule | Total [1] | Unique [2] | Total (293_HA-BRD7: HA-BRD7 bait purification, total peptide count per co-purified protein) | Unique (293_HA-BRD7: HA-BRD7 bait purification, unique peptide count per co-purified protein)
1 | B1 | 1 | 1 |  | 
2 | B2 |  |  | 12 | 11
3 | B3 | 1 | 1 |  | 
4 | B4 | 1 | 1 |  | 
5 | B5 | 1 | 1 |  | 
6 | B6 | 1 | 1 |  | 
7 | B7 | 1 | 1 |  | 
8 | B8 | 1 | 1 |  | 
9 | B9 | 1 | 1 |  | 
10 | B10 | 1 | 1 |  | 
